{"source": "PubChem BioAssay AID504834", "about": "(National Center for Advancing Translational Sciences (NCATS), 2011)", "note": "Out of some 320,000 compounds screened, about 22,000 (6.9%) were called active. Inconclusive means that the source gave no clear call. Such entries were picked first, then a sample of the others. The call rests on the fitted dose curve; in most records, active means well fitted inhibition curve with a large enough effect; inconclusive means small, poorly fitted or top-dose-only effect, or another doubt; inactive means no such curve, though single readings can be large or run the other way. Potencies of inconclusive entries are doubtful fits and often do not repeat. On the % scale 0 is the no-effect control and ±100 the full control effect; potency means the concentration at half of the fitted maximal effect."}
{"assay": "Primary qHTS for delayed death inhibitors of the malarial parasite plastid, 96 hour incubation", "conditions": "P. falciparum luciferase reporter growth; series mostly up to 28.7 µM; activity change, negative = inhibition: at the top concentration", "method_in_brief": "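Compounds incubated with erythrocytes infected by luciferase-expressing P. falciparum (2% hematocrit, 0.05% parasitemia final) for 96 hours, 37 C in 5% CO2. Growth inhibition scored as decreased luciferase luminescence.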"}
{"smiles": "CC1(C)CC(=O)c2sc(NC(=O)C3COc4ccccc4O3)nc2C1", "note": "(configuration not stated)", "activity change, negative = inhibition": "inactive: 28%"}
{"smiles": "CCN(CC)S(=O)(=O)c1cc(C(=O)OCC(=O)Nc2cccc(S(=O)(=O)N(C)C)c2)ccc1F", "Potency": "inconclusive: 2.94 µM [inhibitor, partial curve, poor fit]"}
{"smiles": "COc1ccc(NC(=O)c2cc3nc(-c4ccccc4)cc(-c4ccccc4)n3n2)c(OC)c1", "Potency": "inconclusive: 7.38 µM [inhibitor, partial curve, poor fit]"}
{"smiles": "COc1ccc(CNc2nc(-c3ccccc3)nc3ccccc23)cc1OC", "Potency": "inconclusive: 11.7 µM [inhibitor, partial curve, poor fit]"}
{"smiles": "O=S(=O)(c1ccc(F)cc1)N1CCN(c2ccc(-c3ccccc3)nn2)CC1", "activity change, negative = inhibition": "inactive: -21.1%"}
{"smiles": "CC1(C)CC(NC(=O)c2coc(=O)c(Br)c2)CC(C)(C)N1", "Potency": "inconclusive: 18.5 µM [inhibitor, single point]"}
{"smiles": "CC(C(=O)OCC(=O)c1ccc([N+](=O)[O-])cc1)N1C(=O)C2C3CCC(C3)C2C1=O", "note": "(configuration not stated)", "Potency": "active: 10.4 µM"}
{"smiles": "COc1ccc(-n2cc3c(-c4cccc(Br)c4)nnc(C)c3n2)cc1", "Potency": "inconclusive: 18.5 µM [inhibitor, single point]"}
{"smiles": "COc1ccccc1NC(=O)OC(C)c1ccc(Cl)cc1", "note": "(configuration not stated)", "Potency": "inconclusive: 11.7 µM [inhibitor, single point]"}
{"smiles": "CCOC(=O)c1sc(NC(=O)C2CC2)nc1C", "Potency": "inconclusive: 7.38 µM [inhibitor, partial curve, poor fit]"}
{"smiles": "CCCC(=O)Nc1ccc2c(c1)nc(CCNC(=O)c1ccccc1)n2C", "activity change, negative = inhibition": "inactive: -13.7%"}
{"smiles": "CCOc1ccc2nc(N3C(=O)/C(=C/c4ccc(Cl)cc4)NC3=S)sc2c1", "Potency": "inconclusive: 1.47 µM [inhibitor, partial curve, poor fit]"}
{"smiles": "O=C1CCCN1CCC(=O)N1CCCC(Nc2ccc(F)c(F)c2)C1", "note": "(configuration not stated)", "Potency": "inconclusive: 13.1 µM [inhibitor, partial curve, poor fit]"}
{"smiles": "CCOCCCn1c(=S)[nH]c2cc3c(cc2c1=O)OCO3", "activity change, negative = inhibition": "inactive: 6.25%"}
{"smiles": "Cc1cc2c(nc1C)CCCN2C[C@@H](C)O/N=C1/[C@H]2CCn3c(=O)n(-c4ccccc4)c(=O)n3[C@H]2[C@H](O)[C@@H]2O[C@H]12", "Potency": "active: 13.1 µM"}
{"smiles": "CN(C)c1ccnc(-n2cccc2/C=N/OCc2ccccc2)c1C#N", "activity change, negative = inhibition": "inactive: -25.3%"}
{"smiles": "Cc1noc(C)c1COC(=O)c1ccc(F)c(S(=O)(=O)N2CCOCC2)c1", "Potency": "inconclusive: 13.1 µM [inhibitor, single point]"}
{"smiles": "O=C(COc1ccccc1Br)Nc1ccccc1C(F)(F)F", "activity change, negative = inhibition": "inactive: 85.7%"}
{"smiles": "CSc1ccc(/C=C(/NC(=O)c2ccco2)C(=O)N2CCOCC2)cc1", "Potency": "inconclusive: 13.1 µM [inhibitor, single point]"}
{"smiles": "CS(=O)(=O)CCC(C(=O)O)N1C(=O)c2ccc(Oc3ccc(Cl)cc3)cc2C1=O", "note": "(configuration not stated)", "activity change, negative = inhibition": "inactive: -3.95%"}
{"smiles": "CN(Cc1ccccc1)C(=O)c1[nH]cnc1C(=O)Nc1ccc(Cl)cc1", "Potency": "inconclusive: 4.15 µM [inhibitor, single point]"}
{"smiles": "COc1ccccc1-n1c(SCC(=O)N2CCCCC2)nc2cccnc21", "Potency": "inconclusive: 13.1 µM [inhibitor, single point]"}
{"smiles": "C/C(=N\\Nc1cccc(Cl)c1)C1(C)N(O)C(C)(C)C(c2ccco2)=[N+]1[O-]", "note": "(configuration not stated)", "Potency": "inconclusive: 7.38 µM [inhibitor, partial curve, poor fit]"}
{"smiles": "COc1ccc(OC)c(NC(=O)C(C)SCc2nc3sc(C)c(C)c3c(=O)[nH]2)c1", "note": "(configuration not stated)", "Potency": "inconclusive: 1.31 µM [inhibitor, partial curve, poor fit]"}
{"smiles": "CN(CC(=O)Nc1c(Cl)cccc1Cl)C(=O)C1=COCCO1", "activity change, negative = inhibition": "inactive: 11.1%"}
{"smiles": "Cc1nn(-c2ccccc2)c(Cl)c1/C=N/NC(=O)c1nn(C)cc1[N+](=O)[O-]", "activity change, negative = inhibition": "inactive: -22%"}
{"smiles": "COc1ccc(CNC(=O)c2cc(C3CC3)nc3c2cnn3C(C)C)cc1OC", "Potency": "inconclusive: 11.7 µM [inhibitor, single point]"}
{"smiles": "O=C(CN1CCN(C2CCCCC2)CC1)Nc1ccccc1-c1ccccc1", "Potency": "inconclusive: 18.5 µM [inhibitor, single point]"}
{"smiles": "CCCn1nc(C(=O)Nc2ccc3c(c2)OCCO3)c2ccccc2c1=O", "Potency": "inconclusive: 13.1 µM [inhibitor, partial curve, poor fit]"}
{"smiles": "O=C(CSc1nnc(-c2cccs2)n1C1CC1)NCC1CCCO1", "note": "(configuration not stated)", "activity change, negative = inhibition": "inactive: 1.86%"}
{"smiles": "COc1ccc(NC(=O)c2ccc(NC(=O)C3CC3)cc2)cc1", "activity change, negative = inhibition": "inactive: -2.14%"}
{"smiles": "Cc1ccc(-n2ncc(C(=O)NCC3CCN(C4CCCC4)C3)c2C2CCN(C(=O)OC(C)(C)C)CC2)cc1C", "note": "(configuration not stated)", "Potency": "active: 2.33 µM"}
{"smiles": "Cc1cccc(NC(=O)c2ccc(S(=O)(=O)N3CCC(C)CC3)cc2)n1", "Potency": "inconclusive: 3.29 µM [inhibitor, full curve]"}
{"smiles": "Cc1cc(C)c(S(=O)(=O)NCc2cn3c(C)csc3n2)c(C)c1", "Potency": "inconclusive: 18.5 µM [inhibitor, single point]"}
{"smiles": "Fc1ccc(CCNCc2ccc(Cl)c(Cl)c2)cc1", "Potency": "inconclusive: 0.0828 µM [inhibitor, full curve]"}
{"smiles": "O=C(COc1cccnc1[N+](=O)[O-])c1ccc(Cl)s1", "activity change, negative = inhibition": "inactive: -5.07%"}
{"smiles": "O=C(CCN1C(=O)/C(=C/c2cccs2)SC1=S)Nc1ccc(C(=O)O)c(O)c1", "activity change, negative = inhibition": "inactive: -4.7%"}
{"smiles": "CC(C)=C1C2CCC1C1C(=O)N(c3nc(-c4ccccc4)c(C)s3)C(=O)C21", "note": "(configuration not stated)", "activity change, negative = inhibition": "inactive: 1.52%"}
{"smiles": "O=C(c1cccs1)c1ccc(-c2cccs2)s1", "Potency": "inconclusive: 2.94 µM [inhibitor, single point]"}
{"smiles": "Cc1ccc2nc(SCC(=O)NC3CCCC3)[nH]c2c1", "Potency": "inconclusive: 4.65 µM [inhibitor, partial curve]"}
{"smiles": "Cc1cc(=O)oc2cc(OCC(=O)N3CCN(C(=O)C4COc5ccccc5O4)CC3)c(Cl)cc12", "note": "(configuration not stated)", "Potency": "active: 13.1 µM"}
{"smiles": "COc1ccccc1N(CC(=O)NCc1ccccn1)S(C)(=O)=O", "Potency": "inconclusive: 18.5 µM [inhibitor, single point]"}
{"smiles": "Cc1cc(OCC(=O)OCC(=O)c2c(N)n(C)c(=O)n(C)c2=O)ccc1Cl", "activity change, negative = inhibition": "inactive: -21.5%"}
{"smiles": "CS(=O)(=O)N1CCC(C(=O)NCc2ccc(F)cc2)CC1", "Potency": "inconclusive: 11.7 µM [inhibitor, partial curve, poor fit]"}
{"smiles": "CCc1ccccc1NC(=O)CCS(=O)(=O)c1ccc2c(c1)CCCN2C(C)=O", "Potency": "inconclusive: 18.5 µM [inhibitor, single point]"}
{"smiles": "Cc1cc(Nc2ccccc2)n(C(=O)c2ccc(Cl)cc2)n1", "Potency": "inconclusive: 18.5 µM [inhibitor, single point]"}
{"smiles": "COc1ccc(/C=N\\NC(=O)c2ccc([N+](=O)[O-])cc2)cc1COc1c(F)c(F)cc(F)c1F", "Potency": "inconclusive: 20.8 µM [inhibitor, partial curve, poor fit]"}
{"smiles": "Cc1cc(C)cc(NC(=O)CSc2nc3ccncc3[nH]2)c1", "Potency": "inconclusive: 18.5 µM [inhibitor, single point]"}
{"smiles": "CC(OC(=O)c1ccc(NS(=O)(=O)c2ccc3[nH]c(=O)[nH]c3c2)cc1)C(=O)Nc1ccc(Cl)cc1", "note": "(configuration not stated)", "Potency": "active: 0.586 µM"}
{"smiles": "CCCCCCCCCCCCOCCCN", "Potency": "inconclusive: 1.35 µM [inhibitor, partial curve, poor fit]"}
{"smiles": "COc1ccc(NC(=O)NCc2ccc(Cl)cc2)cc1", "activity change, negative = inhibition": "inactive: 3.46%"}
{"smiles": "CCCN(CC(=O)Nc1ccccc1C)C(=O)c1cc(=O)[nH]c2ccccc12", "Potency": "inconclusive: 18.5 µM [inhibitor, single point]"}
{"smiles": "COc1cccc(NC(=O)CSc2nnc(Cc3cccn3C)n2-c2ccc(F)cc2)c1", "Potency": "active: 4.15 µM"}
{"smiles": "CCN(C(=O)CSc1n[nH]c(-c2cc(Cl)ccc2OC)n1)C1CCS(=O)(=O)C1", "note": "(configuration not stated)", "Potency": "inconclusive: 18.5 µM [inhibitor, single point]"}
{"smiles": "COc1ccc(-c2cc(C(=O)O)c3c(C)nn(-c4ccccn4)c3n2)cc1", "activity change, negative = inhibition": "inactive: 17.7%"}
{"smiles": "CC(C)(C)SCCNC(=O)/C=C/c1ccc(F)cc1", "activity change, negative = inhibition": "inactive: -4.66%"}
{"smiles": "COc1cc(N)c(Cl)cc1C(=O)OCC(=O)c1ccc2c(c1)NC(=O)CO2", "Potency": "inconclusive: 18.5 µM [inhibitor, single point]"}
{"smiles": "CCN(CC)S(=O)(=O)c1cccc(NC(=O)/C=C/c2ccc([N+](=O)[O-])cc2)c1", "Potency": "inconclusive: 4.15 µM [inhibitor, partial curve]"}
{"smiles": "CC(C)C[C@H](NC(=O)c1nc[nH]c1C(=O)NCc1ccc(CNC(=O)OC(C)(C)C)cc1)C(=O)OCc1ccccc1", "Potency": "inconclusive: 4.65 µM [inhibitor, full curve, poor fit]"}
{"smiles": "COc1ccc(-c2nc(NC(=O)Cn3ccc(C(F)(F)F)n3)sc2C)cc1", "Potency": "active: 13.1 µM"}
{"smiles": "CC(C)(C)c1cc(/C=N/NC(=O)Cc2nc3ccccc3[nH]2)cc(C(C)(C)C)c1O", "Potency": "inconclusive: 11.7 µM [inhibitor, partial curve]"}
{"smiles": "CC(C)(C)C(=O)NC(=S)Nc1ccc(Cc2ccncc2)cc1", "Potency": "inconclusive: 18.5 µM [inhibitor, single point]"}
{"smiles": "CCOC(=O)C(C)Sc1nc(-c2ccco2)cc(C(F)(F)F)c1C#N", "note": "(configuration not stated)", "Potency": "inconclusive: 18.5 µM [inhibitor, single point]"}
{"smiles": "CCc1nc2cc(Cl)c(Cl)cc2nc1CC", "activity change, negative = inhibition": "inactive: 4.37%"}
{"smiles": "CNC(=O)c1nc(C)n(-c2ccc(Cl)cc2Cl)n1", "Potency": "inconclusive: 20.8 µM [inhibitor, partial curve, poor fit]"}
{"smiles": "Cn1nc(C(=O)Nc2ccc(Cl)c(S(=O)(=O)N3CCOCC3)c2)c2ccccc2c1=O", "Potency": "inconclusive: 13.1 µM [inhibitor, single point]"}
{"smiles": "O=C(O)c1ccc(Oc2ccc(S(=O)(=O)c3ccc(C(=O)O)c(C(=O)O)c3)cc2)cc1", "Potency": "inconclusive: 18.5 µM [inhibitor, single point]"}
